No constants are given. Whether binding was seen depends on the method and setting. Some binding calls cover weakened binding; strength is not graded here. Tags and fused reporters may be left off the sequences shown.
Target: T1, MitF, reductase (Streptomyces lavendulae NRRL 2564, UniProt Q9X5R6 1-257)
T1 construct: MitF, reductase of the mitomycin C biosynthetic gene cluster, Streptomyces lavendulae NRRL 2564; source: E. coli BL21(DE3), pET30a (pJQK414), purified (Ni-NTA, FPLC); not shown: His6, N-terminal, kept
T1 sequence (looked up): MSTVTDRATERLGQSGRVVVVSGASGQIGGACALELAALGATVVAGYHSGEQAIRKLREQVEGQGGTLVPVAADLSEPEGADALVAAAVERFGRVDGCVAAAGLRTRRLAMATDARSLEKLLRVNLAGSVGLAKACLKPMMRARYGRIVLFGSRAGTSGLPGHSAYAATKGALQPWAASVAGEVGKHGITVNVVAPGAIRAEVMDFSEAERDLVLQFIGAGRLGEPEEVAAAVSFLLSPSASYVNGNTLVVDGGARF
Test: pull-down; MitB or MitF incubated with tag-free holo-MmcB, 100 µL, 10 mM PBS pH 7.5, 1 h at 30 °C; mixture put on His-bind resin, eluted with 20-100 mM imidazole, SDS-PAGE; both purified

binding: binds
B1: holo-MmcB (acyl carrier protein MmcB, tag-free) (natural protein, Streptomyces lavendulae NRRL 2564, UniProt Q9X5S0 1-93, looked up)
chain: METLTTDKIKDRLRKVLVDSLELSLDPSAVPDEGLVEKLGLDSINTIEFLIWVESEFGIEIADEDLSIKLIDSLDLLAGYVSERVNGVTAPAE
modifications: 4'-phosphopantetheine at Ser43 (holo-form)
notes: MmcB, acyl carrier protein of the mitomycin C biosynthetic gene cluster, Streptomyces lavendulae NRRL 2564; 93 amino acid residues; gene synthesised with codons optimised for E. coli; The methods name the holo form for both the pull-down and SPR; also called ACP; tag-free MmcB; not shown: His6, C-terminal, cleaved

Source: paper PMC8621148, “Determination of the Protein-Protein Interactions within Acyl Carrier Protein (MmcB)-Dependent Modifications in the Biosynthesis of Mitomycin” (Molecules, 2021)
